Experimental data taken from publication PMC12504744.
Results are given in words; binding and its absence hold for the method and conditions named. Binding seen in cells or lysates may run through a third protein. Some binding calls cover weakened binding; strength is not graded here. One block for each binder: values may come before it.

Amino acid sequences for entries named in this document (tags omitted).
UniProt P19785: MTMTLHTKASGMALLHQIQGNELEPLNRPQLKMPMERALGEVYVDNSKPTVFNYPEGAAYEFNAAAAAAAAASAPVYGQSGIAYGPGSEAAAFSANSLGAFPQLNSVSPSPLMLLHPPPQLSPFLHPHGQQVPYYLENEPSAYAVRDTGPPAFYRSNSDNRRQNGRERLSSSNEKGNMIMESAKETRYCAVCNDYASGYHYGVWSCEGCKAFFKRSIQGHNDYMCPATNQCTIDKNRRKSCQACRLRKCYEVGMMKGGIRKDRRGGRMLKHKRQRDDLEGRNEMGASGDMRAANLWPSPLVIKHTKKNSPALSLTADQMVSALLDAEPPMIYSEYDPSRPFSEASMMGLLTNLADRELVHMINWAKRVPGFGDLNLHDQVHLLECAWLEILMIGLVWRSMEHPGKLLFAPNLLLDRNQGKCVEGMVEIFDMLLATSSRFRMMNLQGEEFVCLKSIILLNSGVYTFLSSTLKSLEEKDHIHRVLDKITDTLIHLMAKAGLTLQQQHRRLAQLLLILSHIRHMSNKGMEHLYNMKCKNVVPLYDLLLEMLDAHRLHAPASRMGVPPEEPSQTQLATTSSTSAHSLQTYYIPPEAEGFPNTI

How the values were obtained:
[1] = biological target: ERα, endogenous in MOVAS cells (mouse (endogenous in MOVAS)) (UniProt P19785); assay: co-IP; endogenous proteins in MOVAS cell whole-cell lysate, Protein G beads, immunoblotting
[2] = biological target: T1, KDM4B, endogenous in MOVAS cells (mouse (endogenous in MOVAS)), Q91VY5; assay: as above; settings: remark: other sources report otherwise
T1 chain: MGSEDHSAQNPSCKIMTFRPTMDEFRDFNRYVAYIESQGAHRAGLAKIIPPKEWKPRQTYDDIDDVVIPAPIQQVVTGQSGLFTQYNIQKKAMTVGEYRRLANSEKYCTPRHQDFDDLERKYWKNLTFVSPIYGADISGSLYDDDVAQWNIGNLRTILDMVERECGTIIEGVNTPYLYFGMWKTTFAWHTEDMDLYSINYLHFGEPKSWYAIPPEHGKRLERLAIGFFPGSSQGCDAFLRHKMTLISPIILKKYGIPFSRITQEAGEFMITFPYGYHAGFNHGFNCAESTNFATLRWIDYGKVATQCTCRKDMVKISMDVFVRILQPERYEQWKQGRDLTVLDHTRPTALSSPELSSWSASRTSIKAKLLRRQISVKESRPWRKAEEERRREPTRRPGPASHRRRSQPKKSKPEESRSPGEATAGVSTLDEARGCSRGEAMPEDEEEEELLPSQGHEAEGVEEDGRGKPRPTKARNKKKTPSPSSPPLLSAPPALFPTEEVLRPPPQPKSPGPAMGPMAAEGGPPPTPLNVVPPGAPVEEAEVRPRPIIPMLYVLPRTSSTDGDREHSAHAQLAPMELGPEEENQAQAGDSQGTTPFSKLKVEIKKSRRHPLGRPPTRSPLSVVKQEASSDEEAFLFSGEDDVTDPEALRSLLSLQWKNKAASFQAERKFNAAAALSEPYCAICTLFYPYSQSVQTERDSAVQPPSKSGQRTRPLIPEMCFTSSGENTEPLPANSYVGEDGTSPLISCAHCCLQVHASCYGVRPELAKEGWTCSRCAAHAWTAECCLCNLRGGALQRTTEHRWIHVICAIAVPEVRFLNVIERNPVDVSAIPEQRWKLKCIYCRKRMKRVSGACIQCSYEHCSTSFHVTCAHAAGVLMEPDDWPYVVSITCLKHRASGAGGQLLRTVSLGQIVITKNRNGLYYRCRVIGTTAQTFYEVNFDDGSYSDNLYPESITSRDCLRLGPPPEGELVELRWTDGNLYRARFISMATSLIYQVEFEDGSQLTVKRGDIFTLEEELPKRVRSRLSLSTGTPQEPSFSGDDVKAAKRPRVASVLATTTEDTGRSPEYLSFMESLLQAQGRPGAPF

- binding [1]: binds
B1: KDM4B, endogenous in MOVAS cells (protein, UniProt Q91VY5 1-1086)
chain: T1 chain

- binding [2]: binds
B2: Suppressor of Zeste 12 (SUZ12), endogenous in MOVAS cells, Q80U70 1-741 (protein)
chain: MAPQKHGGGGGGGSGPSAGSGGGGFGGSAAAVAAAASGGKSGGGGCGGGGSYSASSSSAAAAAAAAGAAVLPVKKPKMEHVQADHELFLQAFEKPTQIYRFLRTRNLIAPIFLHRTLTYMSHRNSRTSIKRKTFKVDDMLSKVEKMKGEQESHSLSAHLQLTFTGFFHKNDKPSQNSENEQNSVTLEVLLVKVCHKKRKDVSCPIRQVPTGKKQVPLNPDLNQTKPGNFPSLAVSSNEFEPSNSHMVKSYSLLFRVTRPGRREFNGMINGETNENIDVSEELPARRKRNREDGEKTFVAQMTVFDKNRRLQLLDGEYEVAMQEMEECPISKKRATWETILDGKRLPPFETFSQGPTLQFTLRWTGETNDKSTAPVAKPLATRNSESLHQENKPGSVKPAQTIAVKETLTTELQTRKEKDNSNESRQKLRIFYQFLYNNNTRQQTEARDDLHCPWCTLNCRKLYSLLKHLKLCHSRFIFNYVYHPKGARIDVSINECYDGSYAGNPQDIHRQPGFAFSRNGPVKRTPITHILVCRPKRTKASMSEFLESEDGEVEQQRTYSSGHNRLYFHSDTCLPLRPQEMEVDSEDEKDPEWLREKTITQIEEFSDVNEGEKEVMKLWNLHVMKHGFIADNQMNHACMLFVENYGQKIIKKNLCRNFMLHLVSMHDFNLISIMSIDKAVTKLREMQQKLEKGESATPSNEEIAEEQNGTANGFSETNSKEKALETDGVSGVPKQSKKQKL
